Results taken from the supplement of paper PMC12819154, “High-throughput peptide-centric local stability assay extends protein–ligand identification to membrane proteins, tissues and bacteria” (Nature Structural & Molecular Biology, 2025).
This is one part of the list. Most entries show no effect beyond the scatter of the controls.

Protein sequences, listed by entry. Tags and fused reporters are not part of them. Lines headed by an entry give the natural chain unless they say otherwise; changes in a name come on top.
UniProt P04117: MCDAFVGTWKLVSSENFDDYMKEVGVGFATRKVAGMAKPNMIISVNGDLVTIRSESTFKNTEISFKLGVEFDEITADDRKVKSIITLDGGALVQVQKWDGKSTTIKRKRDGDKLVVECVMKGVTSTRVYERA
UniProt P14152: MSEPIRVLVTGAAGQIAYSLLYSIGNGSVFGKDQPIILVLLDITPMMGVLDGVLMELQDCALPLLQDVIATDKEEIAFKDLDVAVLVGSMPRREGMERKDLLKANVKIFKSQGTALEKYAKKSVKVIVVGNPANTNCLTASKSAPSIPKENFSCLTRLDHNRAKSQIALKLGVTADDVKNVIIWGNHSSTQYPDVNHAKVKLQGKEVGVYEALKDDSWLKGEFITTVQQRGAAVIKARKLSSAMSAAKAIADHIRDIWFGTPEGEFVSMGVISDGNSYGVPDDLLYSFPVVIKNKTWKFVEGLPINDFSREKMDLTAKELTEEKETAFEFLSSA
UniProt P12265: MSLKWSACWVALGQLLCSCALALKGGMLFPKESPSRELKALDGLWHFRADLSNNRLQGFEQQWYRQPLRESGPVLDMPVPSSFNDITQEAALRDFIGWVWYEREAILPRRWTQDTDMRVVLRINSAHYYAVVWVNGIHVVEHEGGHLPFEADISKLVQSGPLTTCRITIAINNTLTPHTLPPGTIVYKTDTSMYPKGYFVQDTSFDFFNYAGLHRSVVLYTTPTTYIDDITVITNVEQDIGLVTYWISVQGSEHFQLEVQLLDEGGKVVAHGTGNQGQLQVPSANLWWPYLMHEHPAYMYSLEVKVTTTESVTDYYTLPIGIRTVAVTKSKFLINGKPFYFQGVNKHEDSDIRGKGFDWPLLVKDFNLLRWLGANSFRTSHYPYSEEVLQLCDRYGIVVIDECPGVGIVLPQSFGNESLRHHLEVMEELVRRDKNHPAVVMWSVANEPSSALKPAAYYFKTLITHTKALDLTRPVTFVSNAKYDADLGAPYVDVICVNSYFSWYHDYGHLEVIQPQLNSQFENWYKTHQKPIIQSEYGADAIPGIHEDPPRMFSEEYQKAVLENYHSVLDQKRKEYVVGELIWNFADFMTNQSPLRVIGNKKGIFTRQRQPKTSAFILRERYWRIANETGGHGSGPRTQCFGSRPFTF
UniProt P10605: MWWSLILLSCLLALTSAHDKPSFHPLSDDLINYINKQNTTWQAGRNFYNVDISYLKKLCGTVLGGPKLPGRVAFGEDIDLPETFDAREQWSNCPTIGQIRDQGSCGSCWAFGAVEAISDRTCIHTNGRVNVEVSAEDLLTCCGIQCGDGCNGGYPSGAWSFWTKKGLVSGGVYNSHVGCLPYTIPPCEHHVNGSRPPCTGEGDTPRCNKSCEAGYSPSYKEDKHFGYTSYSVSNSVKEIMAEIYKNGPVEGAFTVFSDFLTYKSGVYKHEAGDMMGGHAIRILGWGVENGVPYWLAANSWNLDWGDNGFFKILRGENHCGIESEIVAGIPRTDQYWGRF
UniProt O88986: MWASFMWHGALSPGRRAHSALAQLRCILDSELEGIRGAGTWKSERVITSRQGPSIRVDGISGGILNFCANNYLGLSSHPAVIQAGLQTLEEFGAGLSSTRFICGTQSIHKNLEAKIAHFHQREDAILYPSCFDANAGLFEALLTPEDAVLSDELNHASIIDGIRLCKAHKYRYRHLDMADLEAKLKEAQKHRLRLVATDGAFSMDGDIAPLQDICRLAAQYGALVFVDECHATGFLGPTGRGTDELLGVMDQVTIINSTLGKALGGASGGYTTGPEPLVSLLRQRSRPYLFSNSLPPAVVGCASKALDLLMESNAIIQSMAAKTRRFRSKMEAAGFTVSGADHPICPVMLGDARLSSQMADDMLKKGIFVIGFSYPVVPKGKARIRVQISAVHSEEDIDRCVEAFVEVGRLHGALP
UniProt P14106, whole entry: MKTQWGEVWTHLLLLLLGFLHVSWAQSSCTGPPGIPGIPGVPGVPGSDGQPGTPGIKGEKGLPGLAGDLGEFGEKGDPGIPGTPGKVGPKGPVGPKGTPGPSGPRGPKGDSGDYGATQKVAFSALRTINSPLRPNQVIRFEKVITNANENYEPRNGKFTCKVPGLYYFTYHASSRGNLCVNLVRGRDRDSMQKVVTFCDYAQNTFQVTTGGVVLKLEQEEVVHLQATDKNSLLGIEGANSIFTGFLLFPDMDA
UniProt P00375: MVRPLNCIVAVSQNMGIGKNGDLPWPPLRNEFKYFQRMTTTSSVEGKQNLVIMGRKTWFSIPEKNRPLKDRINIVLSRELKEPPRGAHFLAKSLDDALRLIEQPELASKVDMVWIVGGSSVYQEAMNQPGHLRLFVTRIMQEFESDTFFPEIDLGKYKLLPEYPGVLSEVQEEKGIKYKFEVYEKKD
UniProt P07310: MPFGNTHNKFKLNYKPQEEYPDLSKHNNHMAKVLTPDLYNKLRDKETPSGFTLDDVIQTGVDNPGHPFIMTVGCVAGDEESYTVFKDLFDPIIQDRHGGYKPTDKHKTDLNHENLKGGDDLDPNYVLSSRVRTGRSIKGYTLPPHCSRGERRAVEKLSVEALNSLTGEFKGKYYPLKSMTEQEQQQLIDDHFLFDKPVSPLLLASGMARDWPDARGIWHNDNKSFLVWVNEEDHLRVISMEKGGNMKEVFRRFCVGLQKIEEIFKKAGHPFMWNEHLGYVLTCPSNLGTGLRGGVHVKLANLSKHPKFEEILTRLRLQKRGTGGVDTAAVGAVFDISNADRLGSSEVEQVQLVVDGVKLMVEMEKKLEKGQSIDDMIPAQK
UniProt P12815: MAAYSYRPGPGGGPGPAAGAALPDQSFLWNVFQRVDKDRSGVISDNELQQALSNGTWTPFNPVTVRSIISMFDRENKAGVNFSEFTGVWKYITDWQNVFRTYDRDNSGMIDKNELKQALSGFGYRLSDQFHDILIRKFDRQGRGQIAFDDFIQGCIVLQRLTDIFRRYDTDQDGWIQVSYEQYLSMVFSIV
UniProt P10637, whole entry: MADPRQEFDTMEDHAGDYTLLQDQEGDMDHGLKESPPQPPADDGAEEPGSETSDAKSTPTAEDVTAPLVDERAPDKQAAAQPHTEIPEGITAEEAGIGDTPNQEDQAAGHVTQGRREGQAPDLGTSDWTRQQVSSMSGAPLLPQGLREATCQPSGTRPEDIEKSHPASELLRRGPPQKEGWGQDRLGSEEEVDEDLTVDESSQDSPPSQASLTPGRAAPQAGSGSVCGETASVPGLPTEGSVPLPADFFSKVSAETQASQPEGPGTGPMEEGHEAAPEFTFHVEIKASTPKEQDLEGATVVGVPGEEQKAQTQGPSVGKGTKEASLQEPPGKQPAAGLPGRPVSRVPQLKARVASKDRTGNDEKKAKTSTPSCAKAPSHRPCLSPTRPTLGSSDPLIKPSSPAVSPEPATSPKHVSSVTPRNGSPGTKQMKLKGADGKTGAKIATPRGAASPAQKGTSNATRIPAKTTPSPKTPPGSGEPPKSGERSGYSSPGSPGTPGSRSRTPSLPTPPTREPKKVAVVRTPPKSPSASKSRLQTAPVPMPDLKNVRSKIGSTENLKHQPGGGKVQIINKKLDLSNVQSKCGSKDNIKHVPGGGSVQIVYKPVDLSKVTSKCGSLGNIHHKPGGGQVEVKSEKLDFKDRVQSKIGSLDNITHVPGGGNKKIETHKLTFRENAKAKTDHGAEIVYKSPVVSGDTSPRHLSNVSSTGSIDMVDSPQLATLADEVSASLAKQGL
UniProt P03995, whole entry: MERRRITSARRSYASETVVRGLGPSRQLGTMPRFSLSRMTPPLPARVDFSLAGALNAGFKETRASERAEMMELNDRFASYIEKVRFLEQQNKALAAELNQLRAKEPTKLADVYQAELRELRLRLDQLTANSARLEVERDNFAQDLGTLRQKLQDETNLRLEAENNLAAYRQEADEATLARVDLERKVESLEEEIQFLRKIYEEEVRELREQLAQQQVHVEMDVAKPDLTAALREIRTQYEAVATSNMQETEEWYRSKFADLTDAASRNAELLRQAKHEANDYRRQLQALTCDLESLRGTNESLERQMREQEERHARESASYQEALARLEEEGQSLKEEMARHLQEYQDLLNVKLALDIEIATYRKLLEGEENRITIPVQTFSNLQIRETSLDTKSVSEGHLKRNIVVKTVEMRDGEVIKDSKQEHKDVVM
UniProt P03953: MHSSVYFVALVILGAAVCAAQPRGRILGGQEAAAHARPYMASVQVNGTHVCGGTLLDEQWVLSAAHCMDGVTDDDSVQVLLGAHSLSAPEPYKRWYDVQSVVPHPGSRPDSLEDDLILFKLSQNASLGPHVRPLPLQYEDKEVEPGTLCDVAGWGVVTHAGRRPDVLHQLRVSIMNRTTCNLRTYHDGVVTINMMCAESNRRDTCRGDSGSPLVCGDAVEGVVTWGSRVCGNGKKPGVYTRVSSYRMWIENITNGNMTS
UniProt O88947, whole entry: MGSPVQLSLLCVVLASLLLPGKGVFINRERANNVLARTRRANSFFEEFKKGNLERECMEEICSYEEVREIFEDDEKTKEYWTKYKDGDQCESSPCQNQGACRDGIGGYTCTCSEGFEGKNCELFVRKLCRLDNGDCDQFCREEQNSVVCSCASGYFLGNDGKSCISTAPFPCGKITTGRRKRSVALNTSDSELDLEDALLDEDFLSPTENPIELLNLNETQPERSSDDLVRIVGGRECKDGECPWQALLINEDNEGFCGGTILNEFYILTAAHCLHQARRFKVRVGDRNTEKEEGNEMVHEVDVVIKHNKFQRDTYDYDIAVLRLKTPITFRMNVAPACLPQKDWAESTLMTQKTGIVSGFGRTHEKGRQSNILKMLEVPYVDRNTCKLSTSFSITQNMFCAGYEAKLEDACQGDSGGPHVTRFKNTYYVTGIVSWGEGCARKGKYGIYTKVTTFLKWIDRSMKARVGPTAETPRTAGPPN
UniProt P14602, whole entry: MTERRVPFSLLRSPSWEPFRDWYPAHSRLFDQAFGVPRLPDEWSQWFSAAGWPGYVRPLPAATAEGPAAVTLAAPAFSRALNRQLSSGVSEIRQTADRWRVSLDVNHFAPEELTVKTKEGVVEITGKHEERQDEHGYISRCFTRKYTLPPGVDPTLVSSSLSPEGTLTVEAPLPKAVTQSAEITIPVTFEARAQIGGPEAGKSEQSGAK
UniProt P11416, whole entry: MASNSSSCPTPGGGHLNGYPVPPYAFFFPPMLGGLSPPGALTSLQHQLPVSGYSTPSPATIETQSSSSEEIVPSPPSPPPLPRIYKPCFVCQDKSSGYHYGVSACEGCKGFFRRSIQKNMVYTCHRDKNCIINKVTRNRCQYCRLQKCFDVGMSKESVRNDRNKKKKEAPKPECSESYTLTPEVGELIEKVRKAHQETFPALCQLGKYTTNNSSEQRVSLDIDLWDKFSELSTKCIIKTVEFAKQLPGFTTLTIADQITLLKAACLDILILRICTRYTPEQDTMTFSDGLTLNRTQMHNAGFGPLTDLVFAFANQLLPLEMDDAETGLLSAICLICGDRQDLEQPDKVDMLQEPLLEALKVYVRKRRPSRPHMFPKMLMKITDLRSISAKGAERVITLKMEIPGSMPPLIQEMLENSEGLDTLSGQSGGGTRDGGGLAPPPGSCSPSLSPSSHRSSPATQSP
UniProt P00342: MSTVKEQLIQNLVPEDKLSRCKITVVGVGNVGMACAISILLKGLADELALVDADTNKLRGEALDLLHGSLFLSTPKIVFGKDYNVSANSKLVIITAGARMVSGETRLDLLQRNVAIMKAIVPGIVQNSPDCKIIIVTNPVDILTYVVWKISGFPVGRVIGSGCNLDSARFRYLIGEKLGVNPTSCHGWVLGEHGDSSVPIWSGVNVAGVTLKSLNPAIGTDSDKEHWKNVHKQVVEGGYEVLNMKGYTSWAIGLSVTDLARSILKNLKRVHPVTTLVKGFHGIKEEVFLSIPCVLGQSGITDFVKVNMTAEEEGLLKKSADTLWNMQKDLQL
UniProt P07356, whole entry: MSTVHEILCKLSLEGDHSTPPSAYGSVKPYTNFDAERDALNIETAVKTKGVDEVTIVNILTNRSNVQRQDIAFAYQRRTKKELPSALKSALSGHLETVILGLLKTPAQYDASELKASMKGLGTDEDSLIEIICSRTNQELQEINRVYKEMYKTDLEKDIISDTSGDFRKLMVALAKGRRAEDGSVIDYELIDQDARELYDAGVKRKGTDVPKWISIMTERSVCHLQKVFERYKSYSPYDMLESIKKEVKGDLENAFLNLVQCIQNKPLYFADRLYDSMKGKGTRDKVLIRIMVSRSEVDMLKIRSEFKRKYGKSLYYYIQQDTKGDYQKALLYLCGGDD
UniProt P11609: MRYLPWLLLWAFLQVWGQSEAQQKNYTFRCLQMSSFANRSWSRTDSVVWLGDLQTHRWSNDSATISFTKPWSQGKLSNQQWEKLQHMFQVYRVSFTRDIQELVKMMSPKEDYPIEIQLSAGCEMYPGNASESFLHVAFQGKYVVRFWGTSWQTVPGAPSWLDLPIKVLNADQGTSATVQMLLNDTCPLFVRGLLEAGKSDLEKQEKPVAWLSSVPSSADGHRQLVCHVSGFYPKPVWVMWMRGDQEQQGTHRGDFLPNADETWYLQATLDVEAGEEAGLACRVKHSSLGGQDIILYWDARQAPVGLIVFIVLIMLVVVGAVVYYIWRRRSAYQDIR
UniProt P10639: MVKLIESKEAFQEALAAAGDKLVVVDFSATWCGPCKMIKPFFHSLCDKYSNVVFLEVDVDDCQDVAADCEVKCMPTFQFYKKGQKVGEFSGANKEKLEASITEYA

Compound: CN[C@@H]1C[C@H]2O[C@@](C)([C@@H]1OC)n1c3ccccc3c3c4c(c5c6ccccc6n2c5c31)C(=O)NC4 [staurosporine]
Assay: log2 fold change of tryptic peptide abundance, ligand vs vehicle (limited proteolysis) (log2 ratio); higher = more trypsin-susceptible (destabilized)
Settings: ligand concentration: 20 uM; sample: mouse liver crude lysate; replicate design: treated separately

Target	log2 fold change
UniProt P04117 (peptide sequence: LGVEFDEITADDRK, peptide start residue: 67)	-0.882
UniProt P15307 (peptide sequence: LLQDCGHFTEKPR, peptide start residue: 303)	-0.119
UniProt P0DP99 (peptide sequence: KLEEIKK, peptide start residue: 30)	0.0802
UniProt P14152 (peptide sequence: KLSSAMSAAK, peptide start residue: 239)	-0.332
UniProt P15864 (peptide sequence: SEAAPAAPAAAPPAEKAPAKK, peptide start residue: 2)	-0.268
UniProt P12265 (peptide sequence: LQGFEQQWYRQPLR, peptide start residue: 56)	0.304
UniProt P06537 (peptide sequence: SQELFDEIR, peptide start residue: 697)	-0.152
UniProt P07146 (peptide sequence: IVGGYTCR, peptide start residue: 24)	-0.168
UniProt P10605 (peptide sequence: HFGYTSYSVSNSVK, peptide start residue: 224)	-0.151
UniProt O88986 (peptide sequence: IAHFHQR, peptide start residue: 116)	-0.214
UniProt P14106 (peptide sequence: TINSPLRPNQVIR, peptide start residue: 127)	-0.205
UniProt P00375 (peptide sequence: VRPLNCIVAVSQNMGIGK, peptide start residue: 2)	-0.0814
UniProt P07310 (peptide sequence: LNYKPQEEYPDLSK, peptide start residue: 12)	-0.362
UniProt P11352 (peptide sequence: NDIAWNFEK, peptide start residue: 156)	0.167
UniProt P12815 (peptide sequence: YITDWQNVFR, peptide start residue: 91)	-0.165
UniProt P15379 (peptide sequence: LVINGGNGTVEDR, peptide start residue: 718)	-0.224

Individual results from above.
log2 fold change, UniProt P07146 (peptide sequence: IVGGYTCR, peptide start residue: 24) reads -0.168
log2 fold change, UniProt P14152 (peptide sequence: KLSSAMSAAK, peptide start residue: 239) reads -0.332

(listing goes on)

Target	log2 fold change
UniProt P10637 (peptide sequence: IGSLDNITHVPGGGNK, peptide start residue: 646)	-0.334
UniProt P15626 (peptide sequence: MAFWNPK, peptide start residue: 212)	0.181
UniProt P08207 (peptide sequence: EFPGFLENQKDPLAVDK, peptide start residue: 38)	0.457
UniProt P03995 (peptide sequence: FADLTDAASR, peptide start residue: 258)	-0.257
UniProt P03953 (peptide sequence: TYHDGVVTINMMCAESNRR, peptide start residue: 184)	0.131
UniProt O88947 (peptide sequence: MLEVPYVDRNTCK, peptide start residue: 376)	-0.661
UniProt P0C605 (peptide sequence: CQSVLPVPSTHIGPR, peptide start residue: 43)	-0.459
UniProt P01901 (peptide sequence: YFVTAVSRPGLGEPR, peptide start residue: 28)	-0.187
UniProt P08607 (peptide sequence: ITLVTYECDKGYR, peptide start residue: 322)	0.192
UniProt P14602 (peptide sequence: EGVVEITGK, peptide start residue: 119)	-0.152
UniProt P11416 (peptide sequence: NMVYTCHR, peptide start residue: 119)	-0.185
UniProt P00342 (peptide sequence: LVIITAGAR, peptide start residue: 91)	-0.147
UniProt P07356 (peptide sequence: KELPSALK, peptide start residue: 81)	-0.18
UniProt P11609 (peptide sequence: TDSVVWLGDLQTHR, peptide start residue: 44)	-0.519
UniProt P10639 (peptide sequence: CMPTFQFYK, peptide start residue: 73)	-0.157
